Among the data in US7255988 are binding values, retold here.

In the assay the target is T1, cathepsin G (Calbiochem) (UniProt P08311).
T1 sequence (looked up): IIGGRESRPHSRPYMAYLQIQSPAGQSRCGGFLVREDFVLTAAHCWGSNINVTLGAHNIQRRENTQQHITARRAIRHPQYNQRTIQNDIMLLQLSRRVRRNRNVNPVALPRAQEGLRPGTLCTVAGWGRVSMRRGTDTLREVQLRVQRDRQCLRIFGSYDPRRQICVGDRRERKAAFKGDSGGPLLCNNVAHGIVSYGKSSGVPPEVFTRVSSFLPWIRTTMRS
Put plainly: plate assay: cathepsin G coated on microtiter plate captures active ACT; detected with anti-ACT antibody, absorbance at 490 nm.

No constants are given. Whether binding was seen depends on the method and setting. Some entries that bind do so weakly or less than the wild type.

B1: alpha 1-antichymotrypsin (ACT), human (protein)
chain: HPNSPLDEENLTQENQDRGTHVDLGLASANVDFAFSLYKQLVLKAPDKNVIFSPLSISTALAFLSLGAHNTTLTEILKGLKFNLTETSEAEIHQSFQHLLRTLNQSSDELQLSMGNAMFVKEQLSLLDRFTEDAKRLYGSEAFATDFQDSAAAKKLINDYVKNGTRGKITDLIKDLDSQTMMVLVNYIFFKAKWEMPFDPQDTHQSRFYLSKKKWVMVPMMSLHHLTIPYFRDEELSCTVVELKYTGNASALFILPDQDKMEEVEAMLLPETLKRWRDSLEFREIGELYLPKFSISRDYNLNDILLQLGIEEAFTSKADLSGITGARNLAVSQVVHKAVLDVFEEGTEASAATAVKITLLSALVETRTIVRFNRPFLMIIVPTDTQNIFFMSKVTNPKQA
Take B1: the binding result is “binds”.
